Experimental data as given in patent US4859707A, “Sulfur-substituted phenylacetamides” (Key Pharmaceuticals, Inc., priority 1983, dated 1989).

Experiment: Estimation of LD50 in mice
Details: mouse, in vivo, ip, intraperitoneal in dimethylsulfoxide, observed for 48 hr
Procedure: The LD50 in white CD-1 male mice (average mass, 24.0±0.1 g) was estimated. A solution of the compound to be tested in dimethysulfoxide was injected intraperitoneally and the animals observed for 48 hr.

With `CCN(CC)CC(=O)Nc1c(C)cccc1C` [lidocaine, reference compound] as the molecule, how does the LD50 at 48 h read?
The LD50 at 48 h was 130 mg/kg.
